Laboratory results as given in the supplement of paper PMC8728848.
The list shows a part of the results.

Key:
Assay in all cases: glycan array binding signal (z-score within array); higher = stronger binding
Conditions in all cases: glycan notation: IUPAC condensed, linker removed
[1] = biological target: Neu5Ac(a2-3)Gal(b1-3)]Neu5Ac(a2-3)Gal(b1-4)]GlcNAc
Procedure, shortened: (§1)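 Columns mapping to the same glycan were averaged after glycan names were converted to IUPAC-condensed notation. The data come from 3228 arrays in the Consortium for Functional Glycomics database, limited to those with an available protein sequence. Binding is reported as a within-array Z-score averaged across arrays of one protein sequence and across linkers.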

[2] = biological target: Neu5Ac(a2-3)Gal(b1-4)Glc
Procedure, shortened: as §1

[3] = biological target: Neu5Ac(a2-3)Gal(b1-4)GlcNAc
Procedure, shortened: as §1

[4] = biological target: Neu5Ac(a2-3)Gal(b1-4)GlcNAc(b1-2)Man
Procedure, shortened: as §1

[5] = biological target: Neu5Ac(a2-3)Gal(b1-4)GlcNAc(b1-2)Man(a1-3)[GlcNAc(b1-4)][Neu5Ac(a2-3)Gal(b1-4)GlcNAc(b1-2)Man(a1-6)]Man(b1-4)GlcNAc(b1-4)GlcNAc
Procedure, shortened: as §1

[6] = biological target: Neu5Ac(a2-3)Gal(b1-4)GlcNAc(b1-2)Man(a1-3)[Neu5Ac(a2-3)Gal(b1-4)GlcNAc(b1-2)Man(a1-6)]Man(b1-4)GlcNAc(b1-4)GlcNAc
Procedure, shortened: as §1

[7] = biological target: Neu5Ac(a2-3)Gal(b1-4)GlcNAc(b1-2)Man(a1-3)[Neu5Ac(a2-3)Gal(b1-4)GlcNAc(b1-2)Man(a1-6)]Man(b1-4)GlcNAc(b1-4)[Fuc(a1-6)]GlcNAc
Procedure, shortened: as §1

[8] = biological target: Neu5Ac(a2-3)Gal(b1-4)GlcNAc(b1-2)Man(a1-3)[Neu5Ac(a2-6)Gal(b1-4)GlcNAc(b1-2)Man(a1-6)]Man(b1-4)GlcNAc(b1-4)GlcNAc
Procedure, shortened: as §1

[9] = biological target: Neu5Ac(a2-3)Gal(b1-4)GlcNAc(b1-2)[Neu5Ac(a2-3)Gal(b1-4)GlcNAc(b1-4)]Man(a1-3)[GlcNAc(b1-4)][Neu5Ac(a2-3)Gal(b1-4)GlcNAc(b1-2)[Neu5Ac(a2-3)Gal(b1-4)GlcNAc(b1-6)]Man(a1-6)]Man(b1-4)GlcNAc(b1-4)GlcNAc
Procedure, shortened: as §1

[10] = biological target: Neu5Ac(a2-3)Gal(b1-4)GlcNAc(b1-2)[Neu5Ac(a2-3)Gal(b1-4)GlcNAc(b1-4)]Man(a1-3)[GlcNAc(b1-4)][Neu5Ac(a2-3)Gal(b1-4)GlcNAc(b1-4)Man(a1-6)]Man(b1-4)GlcNAc(b1-4)GlcNAc
Procedure, shortened: as §1

[11] = biological target: Neu5Ac(a2-3)Gal(b1-4)GlcNAc(b1-2)[Neu5Ac(a2-3)Gal(b1-4)GlcNAc(b1-6)]Man(a1-6)[Neu5Ac(a2-3)Gal(b1-4)GlcNAc(b1-2)Man(a1-3)][GlcNAc(b1-4)]Man(b1-4)GlcNAc(b1-4)GlcNAc
Procedure, shortened: as §1

[12] = biological target: Neu5Ac(a2-3)Gal(b1-4)GlcNAc(b1-3)Gal
Procedure, shortened: as §1

[13] = biological target: Neu5Ac(a2-3)Gal(b1-4)GlcNAc(b1-3)Gal(b1-3)GlcNAc
Procedure, shortened: as §1

[14] = biological target: Neu5Ac(a2-3)Gal(b1-4)GlcNAc(b1-3)Gal(b1-4)GlcNAc
Procedure, shortened: as §1

[15] = biological target: Neu5Ac(a2-3)Gal(b1-4)GlcNAc(b1-3)Gal(b1-4)GlcNAc(b1-2)Man(a1-3)[Neu5Ac(a2-3)Gal(b1-4)GlcNAc(b1-3)Gal(b1-4)GlcNAc(b1-2)Man(a1-6)]Man(b1-4)GlcNAc(b1-4)GlcNAc
Procedure, shortened: as §1

[16] = biological target: Neu5Ac(a2-3)Gal(b1-4)GlcNAc(b1-3)Gal(b1-4)GlcNAc(b1-3)Gal(b1-4)GlcNAc
Procedure, shortened: as §1

[17] = biological target: Neu5Ac(a2-3)Gal(b1-4)GlcNAc(b1-3)Gal(b1-4)GlcNAc(b1-3)Gal(b1-4)GlcNAc(b1-2)Man(a1-3)[Neu5Ac(a2-3)Gal(b1-4)GlcNAc(b1-3)Gal(b1-4)GlcNAc(b1-3)Gal(b1-4)GlcNAc(b1-2)Man(a1-6)]GalNAc
Procedure, shortened: as §1

[18] = biological target: Neu5Ac(a2-3)Gal(b1-4)GlcNAc(b1-3)Gal(b1-4)GlcNAc(b1-3)GalNAc
Procedure, shortened: as §1

[19] = biological target: Neu5Ac(a2-3)Gal(b1-4)GlcNAc(b1-3)Gal(b1-4)GlcNAc(b1-3)[Neu5Ac(a2-3)Gal(b1-4)GlcNAc(b1-3)Gal(b1-4)GlcNAc(b1-6)]GalNAc
Procedure, shortened: as §1

[20] = biological target: Neu5Ac(a2-3)Gal(b1-4)GlcNAc(b1-3)Gal(b1-4)GlcNAc(b1-6)[Gal(b1-3)]GalNAc
Procedure, shortened: as §1

[21] = biological target: Neu5Ac(a2-3)Gal(b1-4)GlcNAc(b1-3)Gal(b1-4)[Fuc(a1-3)]GlcNAc
Procedure, shortened: as §1

[22] = biological target: Neu5Ac(a2-3)Gal(b1-4)GlcNAc(b1-3)GalNAc
Procedure, shortened: as §1

[23] = biological target: Neu5Ac(a2-3)Gal(b1-4)GlcNAc(b1-3)[Neu5Ac(a2-3)Gal(b1-4)GlcNAc(b1-6)]GalNAc
Procedure, shortened: as §1

[24] = biological target: Neu5Ac(a2-3)Gal(b1-4)GlcNAc(b1-6)GalNAc
Procedure, shortened: as §1

[25] = biological target: Neu5Ac(a2-3)Gal(b1-4)GlcNAc(b1-6)[Gal(b1-3)]GalNAc
Procedure, shortened: as §1

[26] = biological target: Neu5Ac(a2-3)Gal(b1-4)GlcNAc(b1-6)[Neu5Ac(a2-3)Gal(b1-3)]GalNAc
Procedure, shortened: as §1

[27] = biological target: Neu5Ac(a2-3)Gal(b1-4)GlcNAc6S
Procedure, shortened: as §1

[28] = biological target: Neu5Ac(a2-3)Gal(b1-4)[Fuc(a1-3)]GlcNAc
Procedure, shortened: as §1

[29] = biological target: Neu5Ac(a2-3)Gal(b1-4)[Fuc(a1-3)]GlcNAc(b1-2)Man
Procedure, shortened: as §1

[30] = biological target: Neu5Ac(a2-3)Gal(b1-4)[Fuc(a1-3)]GlcNAc(b1-3)Gal
Procedure, shortened: as §1

[31] = biological target: Neu5Ac(a2-3)Gal(b1-4)[Fuc(a1-3)]GlcNAc(b1-3)Gal(b1-4)GlcNAc
Procedure, shortened: as §1

[32] = biological target: Neu5Ac(a2-3)Gal(b1-4)[Fuc(a1-3)]GlcNAc(b1-3)Gal(b1-4)[Fuc(a1-3)]GlcNAc(b1-3)Gal(b1-4)[Fuc(a1-3)]GlcNAc
Procedure, shortened: as §1

[33] = biological target: Neu5Ac(a2-3)Gal(b1-4)[Fuc(a1-3)]GlcNAc(b1-3)GalNAc
Procedure, shortened: as §1

[34] = biological target: Neu5Ac(a2-3)Gal(b1-4)[Fuc(a1-3)]GlcNAc(b1-6)[Gal(b1-3)]GalNAc
Procedure, shortened: as §1

[35] = biological target: Neu5Ac(a2-3)Gal(b1-4)[Fuc(a1-3)]GlcNAc(b1-6)[Neu5Ac(a2-3)Gal(b1-3)]GalNAc
Procedure, shortened: as §1

[36] = biological target: Neu5Ac(a2-3)Gal(b1-4)[Fuc(a1-3)]GlcNAc6S
Procedure, shortened: as §1

[37] = biological target: Neu5Ac(a2-3)Gal6S(b1-4)GlcNAc
Procedure, shortened: as §1

[38] = biological target: Neu5Ac(a2-3)Gal6S(b1-4)[Fuc(a1-3)]GlcNAc
Procedure, shortened: as §1

B1: Pwp7 (Candida glabrata) (protein)
chain: MGSSHHHHHHSSGLVPRGSHMASKNPVDFPNLCQYPNLDGAVAGFDTEIYNADPSILINFSLWPILQFPKEWHKTIGRAITTQTNFKLPASDTTLFGVSIPTQNILIEFRGYFIPPKSGTYTFALYLTDDGSAMFLGNDAAFPCGNITSWSNPTNDQVSVSDYDPKKKTLTVYMVAGVAYPLRIAYYNREKGGSLTASFVDPDGLTHSDWNGYIWTLPSCDNCKYS
glycan array binding signal (z-score) [1]: 0.334 | glycan array binding signal (z-score) [2]: -0.417 | glycan array binding signal (z-score) [3]: -1.2 | glycan array binding signal (z-score) [4]: 1.25 | glycan array binding signal (z-score) [5]: 1.48 | glycan array binding signal (z-score) [6]: 0.472 | glycan array binding signal (z-score) [7]: 0.821 | glycan array binding signal (z-score) [8]: 0.678 | glycan array binding signal (z-score) [9]: 0.267 | glycan array binding signal (z-score) [10]: 0.163 | glycan array binding signal (z-score) [11]: 10.8 | glycan array binding signal (z-score) [12]: -0.482 | glycan array binding signal (z-score) [13]: 0.417 | glycan array binding signal (z-score) [14]: -0.686 | glycan array binding signal (z-score) [15]: 1.08 | glycan array binding signal (z-score) [16]: 0.639 | glycan array binding signal (z-score) [17]: 1.28 | glycan array binding signal (z-score) [18]: 1.76 | glycan array binding signal (z-score) [19]: 2.02 | glycan array binding signal (z-score) [20]: 1.16 | glycan array binding signal (z-score) [21]: 0.981 | glycan array binding signal (z-score) [22]: -0.11 | glycan array binding signal (z-score) [23]: 2.25 | glycan array binding signal (z-score) [24]: 1.05 | glycan array binding signal (z-score) [25]: -0.55 | glycan array binding signal (z-score) [26]: 0.511 | glycan array binding signal (z-score) [27]: -0.764 | glycan array binding signal (z-score) [28]: -0.138 | glycan array binding signal (z-score) [29]: 0.134 | glycan array binding signal (z-score) [30]: -0.216 | glycan array binding signal (z-score) [31]: -0.893 | glycan array binding signal (z-score) [32]: 0.044 | glycan array binding signal (z-score) [33]: -0.282 | glycan array binding signal (z-score) [34]: -1.05 | glycan array binding signal (z-score) [35]: 1.38 | glycan array binding signal (z-score) [36]: -0.479 | glycan array binding signal (z-score) [37]: -0.862 | glycan array binding signal (z-score) [38]: -0.423
